# Experimental data reported in the supplement of paper PMC10849652.
# Protein sequences, listed by entry. Tags and fused reporters are not part of them. Lines headed by an entry give the natural chain unless they say otherwise; changes in a name come on top.
# UniProt Q9H0Z9: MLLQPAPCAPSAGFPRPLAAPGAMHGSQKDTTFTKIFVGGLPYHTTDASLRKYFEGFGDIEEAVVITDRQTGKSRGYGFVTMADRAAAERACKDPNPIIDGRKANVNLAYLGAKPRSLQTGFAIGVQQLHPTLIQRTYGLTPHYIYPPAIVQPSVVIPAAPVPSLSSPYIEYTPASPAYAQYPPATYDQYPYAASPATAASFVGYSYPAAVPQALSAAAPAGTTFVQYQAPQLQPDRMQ
# UniProt Q15293: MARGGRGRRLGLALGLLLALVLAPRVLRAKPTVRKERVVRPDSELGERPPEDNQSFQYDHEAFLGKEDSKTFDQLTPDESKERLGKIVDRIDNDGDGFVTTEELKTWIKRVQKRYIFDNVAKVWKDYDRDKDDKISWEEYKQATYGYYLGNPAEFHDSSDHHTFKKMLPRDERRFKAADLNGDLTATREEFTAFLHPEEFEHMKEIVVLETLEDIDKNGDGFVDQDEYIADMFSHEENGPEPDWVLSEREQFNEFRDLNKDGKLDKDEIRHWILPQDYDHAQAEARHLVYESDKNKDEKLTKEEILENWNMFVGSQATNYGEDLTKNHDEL
# UniProt Q9BWF3: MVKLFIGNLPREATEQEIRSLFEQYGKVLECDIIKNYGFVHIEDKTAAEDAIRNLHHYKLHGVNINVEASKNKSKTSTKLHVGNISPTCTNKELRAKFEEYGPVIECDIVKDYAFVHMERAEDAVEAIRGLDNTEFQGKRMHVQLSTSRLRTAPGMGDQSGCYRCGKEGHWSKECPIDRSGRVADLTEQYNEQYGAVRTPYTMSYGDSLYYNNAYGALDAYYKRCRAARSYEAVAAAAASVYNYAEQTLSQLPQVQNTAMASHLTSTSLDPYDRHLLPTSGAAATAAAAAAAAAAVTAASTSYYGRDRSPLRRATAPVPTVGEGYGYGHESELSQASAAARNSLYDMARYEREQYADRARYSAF
# UniProt Q13546: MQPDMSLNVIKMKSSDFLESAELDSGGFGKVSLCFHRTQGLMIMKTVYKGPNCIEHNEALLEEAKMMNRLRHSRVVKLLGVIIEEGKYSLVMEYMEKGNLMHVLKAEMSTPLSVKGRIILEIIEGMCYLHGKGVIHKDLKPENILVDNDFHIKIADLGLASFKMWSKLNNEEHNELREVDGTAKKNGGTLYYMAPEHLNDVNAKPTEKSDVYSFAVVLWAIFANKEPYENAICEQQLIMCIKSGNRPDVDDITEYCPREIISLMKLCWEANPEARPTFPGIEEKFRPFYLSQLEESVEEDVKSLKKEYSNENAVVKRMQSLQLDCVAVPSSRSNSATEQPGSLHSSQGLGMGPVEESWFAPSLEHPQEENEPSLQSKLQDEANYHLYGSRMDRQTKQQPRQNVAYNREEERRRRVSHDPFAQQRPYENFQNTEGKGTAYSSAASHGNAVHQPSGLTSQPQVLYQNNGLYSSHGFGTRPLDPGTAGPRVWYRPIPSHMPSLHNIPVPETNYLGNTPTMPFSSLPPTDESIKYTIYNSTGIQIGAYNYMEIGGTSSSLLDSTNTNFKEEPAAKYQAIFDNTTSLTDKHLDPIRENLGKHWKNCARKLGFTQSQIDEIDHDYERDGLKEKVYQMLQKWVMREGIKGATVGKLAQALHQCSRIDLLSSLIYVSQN
# UniProt Q5VTB9: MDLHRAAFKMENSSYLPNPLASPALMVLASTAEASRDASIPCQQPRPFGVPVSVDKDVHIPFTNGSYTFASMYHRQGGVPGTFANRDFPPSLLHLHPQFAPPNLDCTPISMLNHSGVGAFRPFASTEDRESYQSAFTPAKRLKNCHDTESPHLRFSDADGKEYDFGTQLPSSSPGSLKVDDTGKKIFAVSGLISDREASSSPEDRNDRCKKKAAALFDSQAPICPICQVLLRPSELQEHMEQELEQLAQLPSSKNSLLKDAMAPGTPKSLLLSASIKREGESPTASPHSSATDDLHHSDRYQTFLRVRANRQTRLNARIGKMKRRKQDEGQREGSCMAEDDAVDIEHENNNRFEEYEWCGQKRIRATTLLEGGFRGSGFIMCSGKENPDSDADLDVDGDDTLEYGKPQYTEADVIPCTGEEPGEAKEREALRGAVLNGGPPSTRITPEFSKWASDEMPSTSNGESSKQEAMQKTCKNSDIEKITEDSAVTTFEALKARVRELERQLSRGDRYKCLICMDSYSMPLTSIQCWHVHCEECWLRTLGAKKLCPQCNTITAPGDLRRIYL
# UniProt Q9H920: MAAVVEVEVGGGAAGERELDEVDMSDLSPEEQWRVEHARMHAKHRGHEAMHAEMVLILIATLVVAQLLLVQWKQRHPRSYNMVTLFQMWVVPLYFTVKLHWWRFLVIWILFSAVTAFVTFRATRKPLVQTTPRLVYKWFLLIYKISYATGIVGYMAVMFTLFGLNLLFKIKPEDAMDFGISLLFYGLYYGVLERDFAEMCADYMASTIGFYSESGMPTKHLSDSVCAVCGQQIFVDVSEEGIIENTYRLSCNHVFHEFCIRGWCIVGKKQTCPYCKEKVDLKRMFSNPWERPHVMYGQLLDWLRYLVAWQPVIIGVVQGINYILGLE
# UniProt Q96AA3: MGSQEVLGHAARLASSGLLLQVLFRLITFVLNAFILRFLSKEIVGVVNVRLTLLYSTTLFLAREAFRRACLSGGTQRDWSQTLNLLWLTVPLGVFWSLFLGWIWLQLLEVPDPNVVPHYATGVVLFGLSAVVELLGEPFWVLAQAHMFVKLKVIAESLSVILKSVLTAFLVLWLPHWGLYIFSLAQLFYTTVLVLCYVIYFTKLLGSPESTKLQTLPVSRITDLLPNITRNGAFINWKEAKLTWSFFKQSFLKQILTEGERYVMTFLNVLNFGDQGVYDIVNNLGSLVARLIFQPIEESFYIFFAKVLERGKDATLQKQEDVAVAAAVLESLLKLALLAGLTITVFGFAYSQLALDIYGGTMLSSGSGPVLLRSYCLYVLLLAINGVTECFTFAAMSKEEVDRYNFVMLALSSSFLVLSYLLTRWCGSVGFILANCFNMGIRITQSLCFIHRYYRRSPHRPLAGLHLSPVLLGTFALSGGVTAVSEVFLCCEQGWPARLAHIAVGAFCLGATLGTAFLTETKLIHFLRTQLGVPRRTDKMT
# UniProt Q00765: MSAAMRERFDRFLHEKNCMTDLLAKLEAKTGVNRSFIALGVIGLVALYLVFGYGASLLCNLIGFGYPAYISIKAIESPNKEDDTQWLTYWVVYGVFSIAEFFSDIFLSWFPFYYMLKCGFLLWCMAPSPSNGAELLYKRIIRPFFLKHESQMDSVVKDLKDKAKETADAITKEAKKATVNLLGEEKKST
# UniProt Q06587: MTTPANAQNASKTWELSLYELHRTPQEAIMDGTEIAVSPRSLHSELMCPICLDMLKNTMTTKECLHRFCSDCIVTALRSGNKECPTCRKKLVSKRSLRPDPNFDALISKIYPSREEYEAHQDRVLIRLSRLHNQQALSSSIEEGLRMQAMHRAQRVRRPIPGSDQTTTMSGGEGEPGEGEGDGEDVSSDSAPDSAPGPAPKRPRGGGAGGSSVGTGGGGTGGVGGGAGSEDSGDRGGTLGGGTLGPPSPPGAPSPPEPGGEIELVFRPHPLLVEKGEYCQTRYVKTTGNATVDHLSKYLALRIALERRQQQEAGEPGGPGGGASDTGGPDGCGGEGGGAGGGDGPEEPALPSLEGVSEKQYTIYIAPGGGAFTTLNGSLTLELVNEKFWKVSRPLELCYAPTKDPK
# UniProt Q8TC12: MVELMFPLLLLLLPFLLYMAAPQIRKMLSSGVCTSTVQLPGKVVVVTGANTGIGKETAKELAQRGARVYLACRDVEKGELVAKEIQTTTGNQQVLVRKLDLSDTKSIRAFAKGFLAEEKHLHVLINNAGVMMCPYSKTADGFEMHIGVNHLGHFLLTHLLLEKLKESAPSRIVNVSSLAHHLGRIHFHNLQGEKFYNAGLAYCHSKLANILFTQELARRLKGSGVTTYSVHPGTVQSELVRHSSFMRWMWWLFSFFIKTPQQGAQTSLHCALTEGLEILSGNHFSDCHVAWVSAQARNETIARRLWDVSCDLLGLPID
# UniProt P34096: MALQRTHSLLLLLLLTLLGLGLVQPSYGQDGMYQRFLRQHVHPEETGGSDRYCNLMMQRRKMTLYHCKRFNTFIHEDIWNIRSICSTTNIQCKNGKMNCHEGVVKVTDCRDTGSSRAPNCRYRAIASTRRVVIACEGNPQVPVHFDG
# UniProt Q96I51, whole entry, looked up: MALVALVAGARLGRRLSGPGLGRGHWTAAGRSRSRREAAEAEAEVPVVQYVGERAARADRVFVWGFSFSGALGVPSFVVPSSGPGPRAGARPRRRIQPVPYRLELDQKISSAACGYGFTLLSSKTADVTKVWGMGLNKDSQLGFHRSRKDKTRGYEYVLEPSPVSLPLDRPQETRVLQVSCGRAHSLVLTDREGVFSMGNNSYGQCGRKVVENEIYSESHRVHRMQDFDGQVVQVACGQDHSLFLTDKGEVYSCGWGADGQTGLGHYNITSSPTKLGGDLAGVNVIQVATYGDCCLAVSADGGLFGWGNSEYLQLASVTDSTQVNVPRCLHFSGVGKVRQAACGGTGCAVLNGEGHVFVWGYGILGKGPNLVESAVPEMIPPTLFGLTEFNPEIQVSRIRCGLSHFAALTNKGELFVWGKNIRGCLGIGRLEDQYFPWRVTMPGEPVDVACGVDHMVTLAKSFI
# UniProt Q14498: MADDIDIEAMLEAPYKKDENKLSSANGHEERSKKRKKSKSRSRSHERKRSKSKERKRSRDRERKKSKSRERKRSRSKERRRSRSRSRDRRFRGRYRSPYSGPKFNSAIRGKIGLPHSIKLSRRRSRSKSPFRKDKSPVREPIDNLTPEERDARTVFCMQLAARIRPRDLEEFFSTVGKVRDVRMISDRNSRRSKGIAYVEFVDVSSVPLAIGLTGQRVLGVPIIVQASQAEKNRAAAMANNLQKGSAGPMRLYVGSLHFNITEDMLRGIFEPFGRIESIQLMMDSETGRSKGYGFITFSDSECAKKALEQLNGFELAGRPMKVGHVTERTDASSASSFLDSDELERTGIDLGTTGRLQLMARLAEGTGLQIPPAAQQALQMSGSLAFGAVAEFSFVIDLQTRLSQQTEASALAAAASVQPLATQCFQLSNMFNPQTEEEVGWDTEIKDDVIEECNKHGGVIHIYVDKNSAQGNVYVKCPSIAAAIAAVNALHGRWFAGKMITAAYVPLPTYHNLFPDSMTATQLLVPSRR
# UniProt P61586, whole entry, looked up: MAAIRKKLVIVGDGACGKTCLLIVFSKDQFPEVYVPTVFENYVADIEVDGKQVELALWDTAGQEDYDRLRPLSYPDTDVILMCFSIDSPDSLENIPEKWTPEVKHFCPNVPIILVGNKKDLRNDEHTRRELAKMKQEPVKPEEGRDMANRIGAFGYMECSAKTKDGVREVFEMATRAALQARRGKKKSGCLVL
# UniProt O43665: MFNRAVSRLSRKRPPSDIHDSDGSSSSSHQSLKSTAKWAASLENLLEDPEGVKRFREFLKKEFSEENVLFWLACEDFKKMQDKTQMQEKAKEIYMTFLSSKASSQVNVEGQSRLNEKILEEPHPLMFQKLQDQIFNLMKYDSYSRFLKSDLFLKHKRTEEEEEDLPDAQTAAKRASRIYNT
# Some of the results follow.
# Columns and labels:
# Assay in all cases: log2 fold change, soluble protein after heating vs DMSO (PISA); higher = thermal stabilisation; K562 cells, 10 uM, 30 min; active = over 0.2 and 3.5 SD of the protein, either way, in both replicates (recomputed)
# [1] = compound: CS(=O)(=O)c1ccc(-c2cnc(N)c(C(=O)Nc3ccccc3)n2)cc1
# Outline: (§1)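 Soluble protein was defined as the supernatant after 21,000xg for 90 min. It came from K562 cells at 2×10^6 cells/mL given 10 μM compound for 30 min, heated in aliquots for 3 min across 48°C-58°C, pooled, and extracted in PBS with 0.5% NP-40 at 4°C, and was quantified by TMTpro 16plex LC-MS/MS with equalised channel sums. Thermal stability against control samples, from duplicates, is reported as log2 fold change.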
# [2] = compound: C[C@@H](Oc1cc(-c2cnn(C3CCNCC3)c2)cnc1N)c1c(Cl)ccc(F)c1Cl [crizotinib]
# Outline: as §1
# [3] = compound: C[C@@H]1COCCN1C2=NC(=NC(=C2)C3(CC3)S(=O)(=O)C)C4=C5C=CNC5=CC=C4
# Outline: as §1
# [4] = compound: C[C@H](C1=CC=C(C=C1)C(=O)NC2=C3C=CNC3=NC=C2)N
# Outline: as §1
# [5] = compound: C[C@H](Nc1ncnc2nc[nH]c12)c1cc2cccc(Cl)c2c(=O)n1-c1ccccc1 [duvelisib]
# Outline: as §1
# [6] = compound: Cc1cc(Nc2cc(CN3CCOCC3)c3nc(C)c(Cc4ccc(Cl)cc4F)n3n2)n[nH]1 [gandotinib]
# Outline: as §1
# [7] = compound: Cc1cc(Nc2cc(N3CCN(C)CC3)nc(Sc3ccc(NC(=O)C4CC4)cc3)n2)n[nH]1 [tozasertib]
# Outline: as §1
# [8] = compound: Cc1cc(SCc2sc(-c3ccc(C(F)(F)F)cc3)nc2C)ccc1OCC(=O)O
# Outline: as §1
# [9] = compound: Cc1ccc(-n2nc(C(C)(C)C)cc2NC(=O)Nc2ccc(OCCN3CCOCC3)c3ccccc23)cc1 [doramapimod]
# Outline: as §1
# [10] = compound: Cc1ccc(C(=O)N(CCCN)[C@@H](c2nc3cc(Cl)ccc3c(=O)n2Cc2ccccc2)C(C)C)cc1 [ispinesib]
# Outline: as §1
# [11] = compound: Cc1ccc(NC(=O)c2ccc(CN3CC[C@H](N(C)C)C3)c(C(F)(F)F)c2)cc1Nc1nccc(-c2cncnc2)n1 [bafetinib]
# Outline: as §1
# [12] = compound: Cc1cccc(CC(=O)N2CCc3c2ccc(-c2cn(C)c4ncnc(N)c24)c3F)n1
# Outline: as §1
# [13] = compound: Cc1cn(-c2cc(NC(=O)c3ccc(C)c(Nc4nccc(-c5cccnc5)n4)c3)cc(C(F)(F)F)c2)cn1 [nilotinib]
# Outline: as §1
# [14] = compound: Cc1nc(Nc2n[nH]c3c2CN(C(=O)N[C@H](CN(C)C)c2ccccc2)C3(C)C)c2sccc2n1
# Outline: as §1
# [15] = compound: Cc1nc(Nc2ncc(C(=O)Nc3c(C)cccc3Cl)s2)cc(N2CCN(CCO)CC2)n1 [dasatinib]
# Outline: as §1
# [16] = compound: Cc1ncc(-c2ccnc(Nc3ccc(S(C)(=O)=O)cc3)n2)n1C(C)C
# Outline: as §1
# [17] = compound: Cn1cc(-c2ccc3c(c2)CCN3C(=O)Cc2cccc(C(F)(F)F)c2)c2c(N)ncnc21
# Outline: as §1
# [18] = compound: Cn1cc(-c2ccc3nnc(C(F)(F)c4ccc5ncccc5c4)n3n2)cn1
# Outline: as §1
# [19] = compound: Cn1cncc1[C@@](N)(c1ccc(Cl)cc1)c1ccc2c(c1)c(-c1cccc(Cl)c1)cc(=O)n2C [tipifarnib]
# Outline: as §1
# [20] = compound: FC(F)(F)c1ccc(/C=C/c2nc(COc3ccc(CCCCn4ccnn4)cc3)co2)cc1 [mubritinib]
# Outline: as §1
Target,log2 fold change [1],log2 fold change [2],log2 fold change [3],log2 fold change [4],log2 fold change [5],log2 fold change [6],log2 fold change [7],log2 fold change [8],log2 fold change [9],log2 fold change [10],log2 fold change [11],log2 fold change [12],log2 fold change [13],log2 fold change [14],log2 fold change [15],log2 fold change [16],log2 fold change [17],log2 fold change [18],log2 fold change [19],log2 fold change [20]
RBM38 (UniProt Q9H0Z9),inactive: -0.03,inactive: 0.213,inactive: 0.152,inactive: -0.193,inactive: 0.012,inactive: 0.061,inactive: 0.031,inactive: 0.051,inactive: -0.095,inactive: 0.022,inactive: -0.047,inactive: 0.011,inactive: -0.028,inactive: -0.013,inactive: 0.004,inactive: -0.013,inactive: 0.17,inactive: 0.212,inactive: -0.071,inactive: 0.029
RCN1 (UniProt Q15293),inactive: -0.002,inactive: 0.057,inactive: 0.018,inactive: 0.014,inactive: 0.007,inactive: -0.01,inactive: -0.039,inactive: 0.004,inactive: -0.034,inactive: -0.006,inactive: -0.075,inactive: -0.08,inactive: 0.007,inactive: 0.006,inactive: 0.032,inactive: -0.046,inactive: 0.002,inactive: 0.02,inactive: 0.02,inactive: -0.019
RBM4 (UniProt Q9BWF3),inactive: -0.024,inactive: -0.04,inactive: -0.081,inactive: 0.06,–,inactive: -0.037,–,inactive: 0.021,inactive: 0.021,inactive: -0.094,inactive: -0.049,inactive: -0.01,inactive: -0.047,inactive: -0.095,inactive: -0.033,inactive: -0.039,inactive: -0.054,inactive: -0.063,inactive: -0.013,inactive: -0.082
RBM8A (UniProt Q9Y5S9),inactive: 0.012,active: 0.287,inactive: 0.007,inactive: 0.025,–,inactive: 0.069,–,inactive: 0.025,inactive: -0.078,inactive: 0.099,inactive: -0.013,inactive: -0.014,inactive: -0.047,inactive: -0.063,inactive: 0.001,inactive: 0.126,inactive: -0.02,inactive: 0.065,inactive: 0.019,inactive: 0.013
RIPK1 (UniProt Q13546),inactive: 0.058,inactive: 0.274,inactive: -0.01,inactive: 0.09,–,inactive: 0.301,active: 1.05,inactive: 0.118,inactive: 0.031,inactive: -0.155,inactive: 0.209,active: 1.12,inactive: -0.007,inactive: -0.196,inactive: 0.197,active: 1.18,active: 1.49,inactive: -0.052,inactive: -0.121,inactive: -0.089
RNF220 (UniProt Q5VTB9),inactive: -0.001,inactive: 0.096,inactive: -0.003,inactive: -0.042,–,inactive: -0.012,–,inactive: -0.011,inactive: -0.057,inactive: 0.073,inactive: -0.064,inactive: 0.008,inactive: 0.009,inactive: -0.058,inactive: 0.01,inactive: 0.037,inactive: -0.034,active: 0.239,inactive: -0.003,inactive: 0.002
RNF121 (UniProt Q9H920),inactive: 0.078,inactive: -0.012,inactive: 0.054,inactive: -0.071,inactive: 0.01,inactive: -0.07,inactive: -0.017,inactive: 0.039,inactive: 0.016,inactive: 0.026,inactive: 0.063,inactive: 0.023,inactive: -0.008,inactive: 0.017,inactive: 0,inactive: -0.042,inactive: 0.026,inactive: -0.166,inactive: 0.059,inactive: -0.031
RFT1 (UniProt Q96AA3),inactive: 0.027,inactive: 0.039,inactive: 0.103,inactive: -0.086,inactive: -0.017,inactive: 0.025,inactive: -0.036,inactive: -0.066,inactive: 0.024,inactive: -0.003,inactive: -0.07,inactive: -0.037,inactive: -0.038,inactive: 0.012,inactive: 0.048,inactive: -0.026,inactive: 0.042,inactive: 0.044,inactive: 0.09,inactive: 0.077
REEP5 (UniProt Q00765),inactive: 0.037,inactive: 0.155,inactive: 0.006,inactive: -0.037,inactive: 0.002,inactive: 0.171,inactive: -0.037,inactive: -0.004,inactive: -0.087,inactive: -0.126,inactive: -0.061,inactive: -0.043,inactive: -0.004,inactive: 0.007,inactive: 0.06,inactive: -0.049,inactive: 0.02,inactive: 0,inactive: 0.107,inactive: 0.026
RNF213 isoform 4 (UniProt Q63HN8),inactive: -0.027,inactive: -0.069,inactive: -0.06,inactive: 0.116,inactive: 0.006,inactive: -0.003,inactive: 0.179,inactive: 0.052,inactive: 0.242,inactive: -0.158,inactive: -0.295,inactive: 0.077,inactive: -0.243,inactive: -0.018,inactive: -0.327,inactive: 0.09,inactive: -0.028,inactive: -0.053,inactive: 0.109,inactive: 0.019
RING1 (UniProt Q06587),inactive: -0.038,inactive: -0.098,inactive: 0.28,inactive: -0.157,–,inactive: -0.03,inactive: 0.078,–,inactive: 0.01,inactive: -0.032,inactive: 0.004,inactive: 0.093,inactive: -0.062,inactive: -0.097,–,inactive: -0.014,inactive: 0.186,inactive: 0.013,inactive: 0.016,inactive: 0.001
RDH11 (UniProt Q8TC12),inactive: 0.164,inactive: -0.303,inactive: 0.082,inactive: 0.116,–,inactive: 0.115,–,active: 0.425,inactive: 0.098,inactive: -0.365,inactive: -0.119,inactive: -0.048,inactive: 0.099,inactive: -0.112,inactive: -0.079,inactive: -0.03,inactive: 0.015,inactive: -0.022,inactive: 0.059,inactive: -0.033
RNASE4 (UniProt P34096),inactive: -0.075,inactive: 0.067,inactive: -0.301,inactive: -0.182,–,inactive: -0.259,inactive: 0.051,–,inactive: -0.157,inactive: -0.045,inactive: -0.075,inactive: -0.268,inactive: -0.086,inactive: 0.037,–,inactive: -0.014,inactive: 0.094,inactive: -0.017,inactive: -0.069,inactive: 0.044
RCC1L (UniProt Q96I51),inactive: -0.014,inactive: 0.009,inactive: 0.009,inactive: -0.018,inactive: 0.003,inactive: -0.003,inactive: 0,inactive: 0.015,inactive: 0.011,inactive: 0.021,inactive: -0.028,inactive: -0.003,inactive: -0.002,inactive: 0.003,inactive: 0.031,inactive: 0.01,inactive: 0.029,inactive: -0.005,inactive: -0.026,inactive: -0.01
RBM39 (UniProt Q14498),inactive: -0.043,inactive: -0.114,inactive: 0.033,inactive: -0.01,–,inactive: -0.052,–,inactive: 0.036,inactive: -0.02,inactive: -0.032,inactive: 0.046,inactive: 0.082,inactive: -0.027,active: -1.03,inactive: -0.1,inactive: 0.055,inactive: -0.041,inactive: -0.012,inactive: -0.03,inactive: -0.043
RHOA (UniProt P61586),inactive: 0.028,inactive: 0.098,inactive: -0.317,inactive: -0.101,–,inactive: 0.022,–,inactive: -0.035,inactive: -0.082,inactive: 0.219,inactive: -0.149,inactive: -0.051,inactive: 0.154,inactive: 0.001,inactive: 0.001,inactive: 0.014,inactive: 0.04,inactive: 0.012,inactive: 0,inactive: 0.029
RGS10 (UniProt O43665),inactive: 0.014,inactive: -0.045,inactive: 0.012,inactive: -0.231,–,inactive: -0.023,–,inactive: 0.024,inactive: 0.006,inactive: 0.017,inactive: -0.08,inactive: 0.032,inactive: -0.057,inactive: 0.002,inactive: -0.034,inactive: 0.009,inactive: 0.126,inactive: -0.031,inactive: -0.043,inactive: -0.019

# Single records (already shown). Order of values: log2 fold change [1]	log2 fold change [2]	log2 fold change [3]	log2 fold change [4]	log2 fold change [5]	log2 fold change [6]	log2 fold change [7]	log2 fold change [8]	log2 fold change [9]	log2 fold change [10]	log2 fold change [11]	log2 fold change [12]	log2 fold change [13]	log2 fold change [14]	log2 fold change [15]	log2 fold change [16]	log2 fold change [17]	log2 fold change [18]	log2 fold change [19]	log2 fold change [20]
# RING1 (UniProt Q06587) as listed: inactive: -0.038	inactive: -0.098	inactive: 0.28	inactive: -0.157	–	inactive: -0.03	inactive: 0.078	–	inactive: 0.01	inactive: -0.032	inactive: 0.004	inactive: 0.093	inactive: -0.062	inactive: -0.097	–	inactive: -0.014	inactive: 0.186	inactive: 0.013	inactive: 0.016	inactive: 0.001
# RBM8A (UniProt Q9Y5S9) as listed: inactive: 0.012	active: 0.287	inactive: 0.007	inactive: 0.025	–	inactive: 0.069	–	inactive: 0.025	inactive: -0.078	inactive: 0.099	inactive: -0.013	inactive: -0.014	inactive: -0.047	inactive: -0.063	inactive: 0.001	inactive: 0.126	inactive: -0.02	inactive: 0.065	inactive: 0.019	inactive: 0.013
